# Experimental data: article doi:10.1101/373704
# Protein sequences, listed by entry. Tags and fused reporters are not part of them.
# UniProt Q15717: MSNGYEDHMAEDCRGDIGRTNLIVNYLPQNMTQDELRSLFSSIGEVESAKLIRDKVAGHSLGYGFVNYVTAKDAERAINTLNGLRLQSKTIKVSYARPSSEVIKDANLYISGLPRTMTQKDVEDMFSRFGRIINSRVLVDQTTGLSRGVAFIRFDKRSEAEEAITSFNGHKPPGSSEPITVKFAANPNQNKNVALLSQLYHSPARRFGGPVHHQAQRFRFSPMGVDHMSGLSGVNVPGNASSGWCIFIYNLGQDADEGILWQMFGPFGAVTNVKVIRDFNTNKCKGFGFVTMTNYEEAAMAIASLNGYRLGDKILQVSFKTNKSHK
# UniProt Q92879: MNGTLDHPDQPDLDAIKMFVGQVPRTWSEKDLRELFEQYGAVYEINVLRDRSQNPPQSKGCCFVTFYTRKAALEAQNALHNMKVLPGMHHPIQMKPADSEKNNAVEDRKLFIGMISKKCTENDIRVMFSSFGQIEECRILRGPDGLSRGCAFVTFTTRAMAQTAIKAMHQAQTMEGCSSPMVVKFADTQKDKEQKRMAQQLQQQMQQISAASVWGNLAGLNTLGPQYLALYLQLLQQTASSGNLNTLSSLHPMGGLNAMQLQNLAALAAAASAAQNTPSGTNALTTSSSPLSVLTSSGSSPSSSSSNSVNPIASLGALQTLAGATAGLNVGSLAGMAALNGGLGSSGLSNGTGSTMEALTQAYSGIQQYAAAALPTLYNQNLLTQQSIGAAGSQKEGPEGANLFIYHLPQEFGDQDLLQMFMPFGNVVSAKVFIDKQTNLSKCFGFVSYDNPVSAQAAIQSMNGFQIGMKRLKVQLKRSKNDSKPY
# Results are given in words; binding and its absence hold for the method and conditions named. In cells and extracts the contact can be indirect. Some binding calls cover weakened binding; strength is not graded here.
# Key:
# [1] = molecular target: EGFP-tagged ELAVL1 (ELAV-like RNA-binding protein 1) (human) (UniProt Q15717); experiment: FRET or BRET
# [2] = molecular target: EGFP-tagged CELF1 (CUGBP Elav-like family member 1) (human) (UniProt Q92879); experiment: FRET or BRET
binding [1],binding [2],Substance
binds,binds,mCherry-tagged CELF1 (CUGBP Elav-like family member 1) (from UniProt Q92879 1-486)
,binds,mCherry-tagged ELAVL1 (ELAV-like RNA-binding protein 1) (from UniProt Q15717 1-326)
